Publication PMC6787001
No constants are given. Whether binding was seen depends on the method and setting. In cells and extracts the contact can be indirect. Some entries that bind do so weakly or less than the wild type.

Amino acid sequences for entries named in this document (tags omitted).
UniProt P46938: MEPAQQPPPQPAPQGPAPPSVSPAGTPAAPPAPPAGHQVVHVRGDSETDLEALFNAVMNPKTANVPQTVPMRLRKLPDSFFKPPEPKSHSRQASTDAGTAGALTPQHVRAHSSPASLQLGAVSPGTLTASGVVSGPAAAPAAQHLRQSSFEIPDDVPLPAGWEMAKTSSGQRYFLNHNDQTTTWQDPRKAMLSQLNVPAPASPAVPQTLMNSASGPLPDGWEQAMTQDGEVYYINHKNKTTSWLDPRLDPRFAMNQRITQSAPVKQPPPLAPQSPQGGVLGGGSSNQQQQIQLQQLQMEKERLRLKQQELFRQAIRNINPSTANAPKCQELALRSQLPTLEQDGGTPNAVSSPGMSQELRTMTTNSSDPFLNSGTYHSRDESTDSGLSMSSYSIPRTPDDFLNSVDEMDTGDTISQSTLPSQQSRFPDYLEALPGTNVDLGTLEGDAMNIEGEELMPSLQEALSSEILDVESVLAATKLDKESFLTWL
UniProt Q02085: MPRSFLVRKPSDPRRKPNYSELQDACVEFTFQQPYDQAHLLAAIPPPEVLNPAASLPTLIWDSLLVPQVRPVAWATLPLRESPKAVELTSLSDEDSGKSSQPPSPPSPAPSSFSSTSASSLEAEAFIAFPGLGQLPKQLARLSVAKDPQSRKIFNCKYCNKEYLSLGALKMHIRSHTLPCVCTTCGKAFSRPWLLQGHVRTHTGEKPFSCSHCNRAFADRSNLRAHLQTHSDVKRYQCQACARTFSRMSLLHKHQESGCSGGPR

Target: Yes-associated protein (YAP) (mouse (endogenous in RLSCs)) (UniProt P46938)
Experiment: co-IP; RLSCs lysed, immunoprecipitated with anti-YAP antibody, Western blot with the indicated antibodies; control immunoprecipitation with normal rabbit antiserum (IgG)

Q: Which binding does the source give for Snail (from UniProt Q02085 1-264) here?
A: binds
